In PMC4497409:
These are yes or no findings as the source states them, for the method shown.

Tests used:
[1] = molecular target: Frizzled5 cysteine-rich domain, mouse (mouse) (UniProt Q9EQD0); test: SEC-MALS; FzCRD proteins at 50 uM on Superdex S200 10/300 GL in 10 mM HEPES, pH 7.5, 0.15 mM NaCl (so in the source); Fz4CRD glycosylated and deglycosylated, mFz5CRD and mFz8CRD glycosylated; both purified
[2] = molecular target: Frizzled8 cysteine-rich domain, mouse (mouse) (UniProt Q61091); test: as above

| binding [1] | binding [2] | Binder |
| --- | --- | --- |
| no binding (tested: 50 μM) |  | Frizzled5 cysteine-rich domain, mouse (domain or fragment, UniProt Q9EQD0 31-176) PVCQEITVPMCRGIGYNLTHMPNQFNHDTQDEAGLEVHQFWPLVEIHCSPDLRFFLCSMYTPICLPDYHKPLPPCRSVCERAKAGCSPLMRQYGFAWPERMSCDRLPVLGGDAEVLCMDYNRSEATTASPKSFPAKPTLPGPPGAP |
|  | no binding (tested: 50 μM) | Frizzled8 cysteine-rich domain, mouse (domain or fragment, UniProt Q61091 30-170) AKELACQEITVPLCKGIGYNYTYMPNQFNHDTQDEAGLEVHQFWPLVEIQCSPDLKFFLCSMYTPICLEDYKKPLPPCRSVCERAKAGCAPLMRQYGFAWPDRMRCDRLPEQGNPDTLCMDYNRTDLTTAAPSPPRRLPPP |
